From PMC7979926
Results are given in words; binding and its absence hold for the method and conditions named. In cells and extracts the contact can be indirect. Some results given as binding are weak or reduced against the parent protein; the word gives no strength.

The chains behind the UniProt entries cited, without tags or fusion partners.
UniProt O82486: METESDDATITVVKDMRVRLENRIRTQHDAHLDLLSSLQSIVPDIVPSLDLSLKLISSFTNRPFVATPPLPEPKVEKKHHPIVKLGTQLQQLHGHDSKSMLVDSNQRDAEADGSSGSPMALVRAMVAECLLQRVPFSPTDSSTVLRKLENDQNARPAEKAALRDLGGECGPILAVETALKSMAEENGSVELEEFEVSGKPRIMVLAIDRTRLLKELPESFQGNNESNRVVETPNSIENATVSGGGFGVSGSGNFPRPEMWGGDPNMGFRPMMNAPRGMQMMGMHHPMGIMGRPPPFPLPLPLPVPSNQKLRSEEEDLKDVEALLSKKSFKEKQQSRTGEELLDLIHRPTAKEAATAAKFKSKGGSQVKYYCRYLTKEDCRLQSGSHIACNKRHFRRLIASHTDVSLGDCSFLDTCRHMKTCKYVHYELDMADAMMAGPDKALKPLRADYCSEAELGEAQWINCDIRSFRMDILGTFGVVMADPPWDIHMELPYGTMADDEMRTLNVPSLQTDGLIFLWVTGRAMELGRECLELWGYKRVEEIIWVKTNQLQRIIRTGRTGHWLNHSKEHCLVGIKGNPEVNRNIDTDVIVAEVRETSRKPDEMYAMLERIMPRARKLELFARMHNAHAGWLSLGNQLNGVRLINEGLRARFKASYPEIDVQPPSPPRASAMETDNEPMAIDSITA

T1: FCA (Arabidopsis) (UniProt O04425)
T1 sequence: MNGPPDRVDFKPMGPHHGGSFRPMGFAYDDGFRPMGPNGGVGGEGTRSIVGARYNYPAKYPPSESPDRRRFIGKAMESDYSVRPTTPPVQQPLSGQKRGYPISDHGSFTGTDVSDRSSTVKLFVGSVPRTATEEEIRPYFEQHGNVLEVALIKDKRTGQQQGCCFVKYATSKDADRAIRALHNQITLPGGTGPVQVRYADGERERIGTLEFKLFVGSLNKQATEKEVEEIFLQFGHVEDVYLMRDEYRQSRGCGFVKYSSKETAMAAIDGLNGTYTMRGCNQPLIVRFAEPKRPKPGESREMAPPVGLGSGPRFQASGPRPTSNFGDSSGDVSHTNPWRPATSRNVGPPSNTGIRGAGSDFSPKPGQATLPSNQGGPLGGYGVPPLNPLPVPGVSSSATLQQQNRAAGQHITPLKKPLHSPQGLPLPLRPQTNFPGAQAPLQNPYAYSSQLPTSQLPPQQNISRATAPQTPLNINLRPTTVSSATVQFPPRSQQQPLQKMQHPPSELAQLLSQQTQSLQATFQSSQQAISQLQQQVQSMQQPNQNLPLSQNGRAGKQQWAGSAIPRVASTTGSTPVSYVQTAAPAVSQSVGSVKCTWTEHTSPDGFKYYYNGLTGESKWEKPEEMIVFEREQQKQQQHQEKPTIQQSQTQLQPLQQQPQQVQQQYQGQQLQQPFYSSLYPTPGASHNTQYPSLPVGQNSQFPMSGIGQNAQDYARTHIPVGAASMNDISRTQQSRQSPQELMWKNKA

B1: MTB (METLL14) (protein, UniProt Q94AI4 1-775)
chain: MKKKQEESSLEKLSTWYQDGEQDGGDRSEKRRMSLKASDFESSSRSGGSKSKEDNKSVVDVEHQDRDSKRERDGRERTHGSSSDSSKRKRWDEAGGLVNDGDHKSSKLSDSRHDSGGERVSVSNEHGESRRDLKSDRSLKTSSRDEKSKSRGVKDDDRGSPLKKTSGKDGSEVVREVGRSNRSKTPDADYEKEKYSRKDERSRGRDDGWSDRDRDQEGLKDNWKRRHSSSGDKDQKDGDLLYDRGREREFPRQGRERSEGERSHGRLGGRKDGNRGEAVKALSSGGVSNENYDVIEIQTKPHDYVRGESGPNFARMTESGQQPPKKPSNNEEEWAHNQEGRQRSETFGFGSYGEDSRDEAGEASSDYSGAKARNQRGSTPGRTNFVQTPNRGYQTPQGTRGNRPLRGGKGRPAGGRENQQGAIPMPIMGSPFANLGMPPPSPIHSLTPGMSPIPGTSVTPVFMPPFAPTLIWPGARGVDGNMLPVPPVLSPLPPGPSGPRFPSIGTPPNPNMFFTPPGSDRGGPPNFPGSNISGQMGRGMPSDKTSGGWVPPRGGGPPGKAPSRGEQNDYSQNFVDTGMRPQNFIRELELTNVEDYPKLRELIQKKDEIVSNSASAPMYLKGDLHEVELSPELFGTKFDVILVDPPWEEYVHRAPGVSDSMEYWTFEDIINLKIEAIADTPSFLFLWVGDGVGLEQGRQCLKKWGFRRCEDICWVKTNKSNAAPTLRHDSRTVFQRSKEHCLMGIKGTVRRSTDGHIIHANIDTDVIIAEEPPYG
B2: FIP37 (WTAP) (protein, UniProt Q9ZSZ8 1-330)
chain: MEFSSQDDDFGGDDSAANATRASGNRRSFGDLEDDEDDIFGSTTVAPGVRTGMILSLRGSLKNCKDDLASCQNELESAKTEIQKWKSAFQNESFVPAGKSPEPRFLIDYIQNLKSSEKSLKEQLEIAKRKEASCIVQYAKREQEMAELKSAVRDLKSQLKPASMQARRLLLDPAIHEEFSRLKNLVEEKDKKIKELQDNIAAVTFTPQSKNGKMLMAKCRTLQEENEEIGHQAAEGKIHELAIKLAMQKSQNAELRSQFEGLYKHMEELTNDVERSNETVIILQEKLEEKEKEIERVKKGLEIVSELVGDKKDEVDEIDEDAKEEIAGGE

These molecules were tested against T1, FCA (Arabidopsis) (assay: co-IP; factors co-immunoprecipitated with FCA after formaldehyde cross-linking (procedure of ref. 19); hits listed in Supplementary Table 1).
For “MTA (homolog of human METTL3) (from UniProt O82486 1-685)”, the binding was “binds”. B1 was tested, and the binding was “binds”. In the case of B2, the binding is reported as “binds”.
